# Hit rate of the full screen: of about 320,000 compounds, about 2,100 (0.66%) were called active. The inconclusive results got no clear call from the source; some entries with a clear call stand among them for comparison. The call rests on the fitted dose curve; in most records, active means well fitted inhibition curve with a large enough effect in the signal ratio, with a control signal flat (not every such curve was filed as active); inconclusive means small, poorly fitted or top-dose-only effect, or effect the other way, or a change in a side signal; inactive means flat fitted curve, though single readings scatter; the % refers to the signal ratio. A potency beside an inconclusive call is a rough fit, not a confirmed value.
# Test: qHTS Assay for Lipid Storage Modulators in Drosophila S3 Cells
# Conditions: BODIPY lipid droplet fluorescence, 18-24 h, cells fed with added oleic acid; lipid storage change, negative = inhibition: at 46.1 µM (top of the series) unless noted
# Method in brief: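 Drosophila S3 cells got compounds at several concentrations plus oleic acid (400 uM solution). Laser-scanning cytometry with 488 nm excitation read lipid droplets at 500-530 nm and cells at 575-640 nm. Percent activity was relative to 20 uM Triacsin C.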
# On the % scale 0 is the no-effect control and ±100 the full control effect; potency means the concentration at half of the fitted maximal effect.
Structure (SMILES),Potency,"lipid storage change, negative = inhibition"
C/C(=N\Nc1ccccn1)c1ccc(C#N)cc1,"inconclusive: 4.11 µM [rising, partial curve, poor fit]",–
CCOC(=O)/C=C/c1ccc2oc3ccccc3c(=O)c2c1,–,inconclusive: -36.4%
Cc1ccc(S(=O)(=O)N2CCC(C(=O)N3CCC3)CC2)cc1,"inconclusive: 29.1 µM [falling, partial curve, poor fit]",–
CC(C)(C)c1ccccc1NC(=O)Cn1cnc2cc([N+](=O)[O-])ccc2c1=O,"inconclusive: 0.82 µM [falling, full curve, poor fit]",–
COc1cccc(C(=O)NC(C)c2cccc3ccccc23)c1OC (stereo not drawn),"inconclusive: 29.1 µM [activator, single point]",–
O=C(O)CN1C(=O)/C(=C2\C(=O)N(Cc3ccccc3Cl)c3ccccc32)SC1=S,–,inconclusive: -48.9%
COc1ccc(CN2CCOCCOCCN(Cc3ccc(OC)cc3)CCOCCOCC2)cc1,–,inactive: -8.25%
Cc1ccccc1Nc1nc(N)nc(COC(=O)c2ccccc2)n1,"inconclusive: 18.4 µM [activator, partial curve]",–
Cc1ccc(CNC(=O)c2ccc(N3CCC4(CC3)CC(c3ccccc3)=NO4)c(NC(=O)c3cccc(C)c3)c2)cc1,–,inconclusive: 0.18%
CC1=CCC(C(=O)O)(C(=O)N/N=C/c2cccs2)C(c2ccc(Cl)cc2)C1 (stereo not drawn),–,inconclusive: -135%
COc1cccc(NC(=O)c2nn(C34CC5CC(CC(C5)C3)C4)cc2[N+](=O)[O-])c1,–,inconclusive: -6.94%
COc1cccc(-c2nc3ccc(C(=O)N4CCCC(O)C4)cc3o2)c1 (stereo not drawn),–,inconclusive: -21.2%
CCOc1ccc2nc(C)cc(C(=O)O)c2c1,–,inconclusive: 8.55%
COc1ccc(OC)c(-c2nn(-c3ccccc3)cc2C(=O)N2CCc3ccccc3C2)c1,"inconclusive: 29.1 µM [falling, single point]",–
CC(C)(CN1CCCC1)NS(=O)(=O)c1ccc(Cl)cc1,–,inconclusive: 52.2%
Cc1cc(Cl)ccc1C(=O)C1CCCN(C(=O)c2cnn(C(C)C)c2)C1 (stereo not drawn),–,inconclusive: -37.8%
O=C(NCCc1cccc(C(F)(F)F)c1)C1CCC(=O)N(C2CC2)C1 (stereo not drawn),–,inconclusive: 14.5%
CC1CC(C)CN(C2CCN(Cc3cccnc3)CC2)C1 (stereo not drawn),"inconclusive: 3.66 µM [falling, partial curve, poor fit]",–
COc1ccc(OC)c(S(=O)(=O)N(C)CC(=O)N2CCN(c3ccccc3)CC2)c1,–,inconclusive: 12.2%
Cc1ccc(NC(=O)CN2C(=O)c3ccccc3C2=O)cc1,"inconclusive: 29.1 µM [activator, single point]",–
Oc1ccccc1C1=NN(c2ccccc2)C(c2ccccc2)C1 (stereo not drawn),active: 1.64 µM,–
N#CCC(=O)Nc1ccc(C(=O)NCc2ccccn2)cc1,–,inconclusive: 3.39%
O=C(OCc1nc2ccccc2s1)c1cccs1,–,inconclusive: -2.49%
Cc1ccc(C)c(CSC2=NCCN2C(=O)Cc2ccc([N+](=O)[O-])cc2)c1,–,inconclusive: 29.7%
COc1ccc(OC)c(C2C(C(=O)c3cccs3)=C(O)C(=O)N2CCN(C)C)c1 (stereo not drawn),"inconclusive: 0.13 µM [falling, full curve, poor fit]",–
CNS(=O)(=O)c1ccc(NC(=O)Nc2ccc3c(c2)OCO3)cc1,"inconclusive: 29.1 µM [rising, single point]",–

Structure (SMILES),Potency,"lipid storage change, negative = inhibition"
CN1CCN(C(=O)c2ccc(OCCOc3ccccc3)cc2)CC1,"inconclusive: 29.1 µM [activator, single point]",–
COc1cccc(CNC(=O)C2CCN(S(=O)(=O)c3c(C)nn(C)c3C)CC2)c1,"inconclusive: 0.326 µM [activator, full curve, poor fit]",–
Cc1c(NC(=O)Cc2cccs2)cccc1[N+](=O)[O-],–,inconclusive: -7.57%
Cc1ccc(-c2nc(CNC(=O)c3cc(C)on3)cs2)cc1,"inconclusive: 29.1 µM [falling, single point]",–
COc1cccc(CN2CC(C(=O)NCCC3=CCCCC3)CCC2=O)c1 (stereo not drawn),–,inconclusive: -37.2%
COc1cc(Cl)c(C)cc1NC(=O)CCN1C(=O)NC(C)(C)C1=O,–,inconclusive
O=c1ccc(-c2nc3cc(Cl)ccc3n2Cc2ccccc2)c[nH]1,–,inconclusive: 16.2%
CCOc1ccc(NC(=O)c2nn(-c3ccc(OC)cc3OC)c(=O)c3ccccc23)cc1,–,inconclusive: -2.55%
CC(=O)NC1(C(F)(F)F)NC(=O)N(C2CCCCC2)C1=O (stereo not drawn),–,inconclusive: 16.8%
Cc1ccc(C(=O)CSc2ncn[nH]2)cc1,–,inconclusive: 3.36%
CCc1noc(C)c1C(=O)Nc1cc(S(=O)(=O)N(CC)CC)ccc1N1CCOCC1,–,inconclusive: 22.8%
Cc1nn(-c2ccccc2)c(Cl)c1C(=O)Nc1ccccc1,–,inconclusive: 21.5%
COC(=O)c1cc(S(=O)(=O)NCC2CCN(Cc3ccccc3F)CC2)c[nH]1,–,inconclusive: 75.5%
CCc1c(C)nc2ncnn2c1N1CCC(C(=O)Nc2ccc(C)cc2)CC1,"inconclusive: 1.03 µM [falling, full curve, poor fit]",–
COCCc1ncc(CN2CCC(C(=O)Nc3cccc(-c4cscn4)c3)CC2)cn1,–,inconclusive: -9.45%
CC(Oc1ccccc1)C(=O)N1CCCc2ccccc21 (stereo not drawn),–,inconclusive: 58.9%
O=C(O)c1ccc(S(=O)(=O)N2CCSCC2)cc1,–,inconclusive: 79.2%
[N-]=[N+]=NC(c1ccccc1)c1nc2ccccc2[nH]c1=O (stereo not drawn),–,inconclusive: -7.62%
CN=C1c2ccccc2CN1c1cccc(C(=O)OC)c1,–,inconclusive: 21.2%
Cc1ccc(S(=O)(=O)N2CCN(CC(O)CN3CCOCC3)CC2)cc1 (stereo not drawn),–,inconclusive: 41.5%
CC1(NC(=S)N(CCO)CCO)CCS(=O)(=O)C1 (stereo not drawn),–,inconclusive: -8.22%
O=C(Nc1ccc(Cl)cc1)C(c1ccccc1)N(CCO)CCO (stereo not drawn),"inconclusive: 29.1 µM [falling, single point]",–
Cc1cc(=O)[nH]c2c1c(C)nn2C1CCCC1,–,inconclusive: 20.6%
COc1ccc(NC(=O)N2CCCC(c3nc(-c4ccc(F)cc4)no3)C2)cc1 (stereo not drawn),–,inconclusive: 22.3%
CC(=O)Nc1ccc(NC(=O)c2ccc(N(C)S(=O)(=O)c3ccc(C)cc3)cc2)cc1,–,inconclusive: -13.3%
CCCCN(CCCC)CCNC(=O)c1cn(C)c2ccc(S(=O)(=O)N3CCCC3)cc2c1=O,–,inconclusive: 31.8%

Structure (SMILES),Potency,"lipid storage change, negative = inhibition"
CC(OC(=O)c1ccc2c(=O)n3c(nc2c1)CCC3)C(N)=O (stereo not drawn),–,inconclusive: 1%
Cc1cc(C)nc(SCCS(=O)(=O)Cc2ccccc2)n1,"inconclusive: 29.1 µM [activator, single point]",–
Cc1cc(C(=O)N/N=C/c2ccc(N(C)C)o2)cs1,"inconclusive: 16.4 µM [falling, single point]",–
O=S(=O)(c1ccccc1)N1N=C(c2ccc(Br)cc2)CC1c1ccco1 (stereo not drawn),active: 16.4 µM,–
CC(=O)N[C@@H](Cc1ccc(O)cc1)CN1C(N)=NC[C@@H]1CC(C)C,–,inconclusive: 51.3%
Cc1ccc(C(=O)Nc2ncccc2C)cc1S(=O)(=O)N1CCOCC1,"inconclusive: 3.26 µM [activator, full curve]",–
CCNc1nc(SCCOc2ccc(C)cc2)nc(N(C)C)n1,–,inconclusive: 0.122%
COc1cc(C(=O)O/N=C(\N)c2cccc([N+](=O)[O-])c2)cc(OC)c1OC,–,inconclusive: 12.3%
CC(=O)Nc1ccc(OCCC[n+]2cccc(C(=O)[O-])c2)cc1,–,inconclusive: 9.31%
CN(C)c1ccc(/C=C(\NC(=O)c2ccccc2)C(=O)NCc2ccncc2)cc1,–,inconclusive: 166%
N#CC1(c2ccccc2)CCC(=NNS(=O)(=O)c2ccccc2)CC1 (stereo not drawn),–,inconclusive: 13.2%
CN(Cc1ccccc1)S(=O)(=O)c1nnc(NC(=O)c2ccc(F)cc2)s1,–,inconclusive: -3.71%
Cc1ccccc1-n1c(=O)[nH]c(=O)c2c(N)c(C(=O)c3ccc(Cl)cc3)sc21,–,inconclusive: 9.88%
Cc1cc(C)n2nc(C(F)(F)F)c(-c3ccccc3)c2n1,"inconclusive: 16.4 µM [activator, single point]",–
CCOC(=O)N1CCN(C(=O)C(C)(C)Oc2ccc(Cl)cc2)CC1,–,inconclusive: 18.7% [at 9.22 µM]
Cc1cc(C(=O)Nc2ccc(N3CCOCC3)c(Cl)c2)c(C)o1,–,inconclusive: 2.27%
Cc1ccccc1N(CC(=O)NC1CCCC1)C(=O)CS(=O)CC(=O)Nc1ccc2c(c1)OCO2 (stereo not drawn),–,inconclusive: 14%
CCCCn1c(N)c(Sc2ccccc2[N+](=O)[O-])c(=O)[nH]c1=O,–,inconclusive: -91.1%
Cc1oc2ccc(O)cc2c1C(=O)c1ccccc1,"inconclusive: 29.1 µM [falling, single point]",–
COC(=O)c1cc(NS(=O)(=O)c2ccc(Cl)c(N3C(=O)c4ccc(C(=O)O)cc4C3=O)c2)cc(C(=O)OC)c1,–,inconclusive: 29.5%
COCCCN(CC(=O)Nc1ccc(N2CCOCC2)cc1)S(=O)(=O)c1ccccc1,–,inconclusive: 34.5%
Cc1csc(NC(=O)CSc2nnc(-c3ccccc3)o2)n1,–,inconclusive: -20.4%
N#Cc1ncc(Cc2ccccc2)nc1C#N,active: 7.31 µM,–
CN(/N=C/c1cc(Br)cc(Br)c1O)c1cccc(C(F)(F)F)n1,–,inconclusive: 27.2%
COc1ccc(CC(=O)NCCc2ccc(S(N)(=O)=O)cc2)cc1,–,inconclusive: -4.86%
O=C(Nc1ccccc1-c1nnc(SCc2ccccc2Cl)o1)c1ccccc1,–,inconclusive: 13.4%

# Already shown: entries from further up.
Structure (SMILES),Potency,"lipid storage change, negative = inhibition"
Cc1cc(C(=O)N/N=C/c2ccc(N(C)C)o2)cs1,"inconclusive: 16.4 µM [falling, single point]",–
O=S(=O)(c1ccccc1)N1N=C(c2ccc(Br)cc2)CC1c1ccco1 (stereo not drawn),active: 16.4 µM,–
CC(=O)N[C@@H](Cc1ccc(O)cc1)CN1C(N)=NC[C@@H]1CC(C)C,–,inconclusive: 51.3%
Cc1ccc(C(=O)Nc2ncccc2C)cc1S(=O)(=O)N1CCOCC1,"inconclusive: 3.26 µM [activator, full curve]",–
CCNc1nc(SCCOc2ccc(C)cc2)nc(N(C)C)n1,–,inconclusive: 0.122%
